At least one peptide structure holds a part that was inferred or is arguable (an end, a ring closure or a residue).
Assay: Dosimetry estimates by the OLINDA method from biodistribution data
Set-up: species or system animal model

**Q.** With `NC(=O)CN1CCN(CC(N)=O)CCN(C(CCC(=O)N[C@H](Cc2ccc(O)c(I)c2)C(=O)N[C@H](Cc2ccccc2)C(=O)N[C@H](CCCCNC(=O)CCCCCCC(=O)NCCCC[C@H](NC(=O)N[C@@H](CCC(=O)O)C(=O)O)C(=O)O)C(=O)O)C(=O)O)CCN(CC(N)=O)CC1` (stereo partly drawn) [[^212Pb]Pb-ADVC001, metal not drawn] as the compound, how does the Dose estimate (Adrenals, all daughter nuclides summed) read?
**A.** The Dose estimate was 0.0011 mSv/MBq.

**Q.** And the Dose estimate (Brain, all daughter nuclides summed)?
**A.** The Dose estimate was 0.00006 mSv/MBq.

**Q.** What about the Dose estimate (Effective Dose) of the same compound?
**A.** Its Dose estimate is 0.1197 mSv/MBq.

**Q.** What about the Dose estimate (Esophagus, all daughter nuclides summed) of the same compound?
**A.** Its Dose estimate is 0.00434 mSv/MBq.

**Q.** And the Dose estimate (Gallbladder wall, all daughter nuclides summed)?
**A.** The Dose estimate was 0.001 mSv/MBq.

**Q.** And the Dose estimate (Heart wall, all daughter nuclides summed)?
**A.** Its Dose estimate is 0.00049 mSv/MBq.

**Q.** What about the Dose estimate (Kidneys, all daughter nuclides summed) of the same compound?
**A.** Its Dose estimate is 0.04406 mSv/MBq.

**Q.** And the Dose estimate (Left colon, all daughter nuclides summed)?
**A.** The Dose estimate was 0.00534 mSv/MBq.

**Q.** And the Dose estimate (Liver, all daughter nuclides summed)?
**A.** Its Dose estimate is 0.00081 mSv/MBq.

**Q.** What about the Dose estimate (Lungs, all daughter nuclides summed) of the same compound?
**A.** The Dose estimate was 0.00206 mSv/MBq.

**Q.** And the Dose estimate (Osteogenic cells, all daughter nuclides summed)?
**A.** The Dose estimate was 0.00472 mSv/MBq.

**Q.** What about the Dose estimate (Pancreas, all daughter nuclides summed) of the same compound?
**A.** Its Dose estimate is 0.00106 mSv/MBq.

**Q.** And the Dose estimate (Prostate, all daughter nuclides summed)?
**A.** The Dose estimate was 0.0005 mSv/MBq.

**Q.** And the Dose estimate (Rectum, all daughter nuclides summed)?
**A.** The Dose estimate was 0.0025 mSv/MBq.

**Q.** What about the Dose estimate (Red marrow, all daughter nuclides summed) of the same compound?
**A.** The Dose estimate was 0.01546 mSv/MBq.

**Q.** What about the Dose estimate (Right colon, all daughter nuclides summed) of the same compound?
**A.** Its Dose estimate is 0.00531 mSv/MBq.

**Q.** What about the Dose estimate (Salivary glands, all daughter nuclides summed) of the same compound?
**A.** Its Dose estimate is 0.00109 mSv/MBq.

**Q.** And the Dose estimate (Small Intestine, all daughter nuclides summed)?
**A.** Its Dose estimate is 0.001 mSv/MBq.

**Q.** What about the Dose estimate (Spleen, all daughter nuclides summed) of the same compound?
**A.** Its Dose estimate is 0.00153 mSv/MBq.

**Q.** And the Dose estimate (Stomach wall, all daughter nuclides summed)?
**A.** Its Dose estimate is 0.01209 mSv/MBq.

**Q.** What about the Dose estimate (Testes, all daughter nuclides summed) of the same compound?
**A.** The Dose estimate was 0.00434 mSv/MBq.

**Q.** What about the Dose estimate (Thymus, all daughter nuclides summed) of the same compound?
**A.** The Dose estimate was 0.001 mSv/MBq.

**Q.** And the Dose estimate (Thyroid, all daughter nuclides summed)?
**A.** Its Dose estimate is 0.00434 mSv/MBq.

**Q.** And the Dose estimate (Urinary bladder wall, all daughter nuclides summed)?
**A.** The Dose estimate was 0.00438 mSv/MBq.

— patent US12419977B2, “Radiopharmaceuticals” (AdvanCell Isotopes Pty Limited, priority 2022, dated 2025)
